According to paper doi:10.1101/2025.10.08.681182:
These are yes or no findings as the source states them, for the method shown. Some entries that bind do so weakly or less than the wild type. For part of these data: Sequences can lack the tags named with a protein. Blank lines part the entries; values can stand above or below the binder they belong to.

Tests used:
Assay in all cases: co-purification
[1] = molecular target: T1, SEPT6 (human) (UniProt Q14141)
T1 sequence: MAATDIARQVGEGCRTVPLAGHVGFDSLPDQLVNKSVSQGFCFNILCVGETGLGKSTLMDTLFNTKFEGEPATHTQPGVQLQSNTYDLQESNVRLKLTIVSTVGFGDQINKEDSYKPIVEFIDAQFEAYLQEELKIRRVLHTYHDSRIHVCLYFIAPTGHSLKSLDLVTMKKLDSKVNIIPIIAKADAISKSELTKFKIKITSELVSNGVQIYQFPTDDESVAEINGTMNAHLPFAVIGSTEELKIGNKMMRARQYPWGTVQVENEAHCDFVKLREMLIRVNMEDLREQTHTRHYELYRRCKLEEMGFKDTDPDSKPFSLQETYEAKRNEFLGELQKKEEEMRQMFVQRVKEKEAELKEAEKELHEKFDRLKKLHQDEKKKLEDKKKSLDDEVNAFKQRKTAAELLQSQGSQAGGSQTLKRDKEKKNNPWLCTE

[2] = molecular target: T2, Cdc3 (budding yeast) (UniProt P32457)
T2 sequence: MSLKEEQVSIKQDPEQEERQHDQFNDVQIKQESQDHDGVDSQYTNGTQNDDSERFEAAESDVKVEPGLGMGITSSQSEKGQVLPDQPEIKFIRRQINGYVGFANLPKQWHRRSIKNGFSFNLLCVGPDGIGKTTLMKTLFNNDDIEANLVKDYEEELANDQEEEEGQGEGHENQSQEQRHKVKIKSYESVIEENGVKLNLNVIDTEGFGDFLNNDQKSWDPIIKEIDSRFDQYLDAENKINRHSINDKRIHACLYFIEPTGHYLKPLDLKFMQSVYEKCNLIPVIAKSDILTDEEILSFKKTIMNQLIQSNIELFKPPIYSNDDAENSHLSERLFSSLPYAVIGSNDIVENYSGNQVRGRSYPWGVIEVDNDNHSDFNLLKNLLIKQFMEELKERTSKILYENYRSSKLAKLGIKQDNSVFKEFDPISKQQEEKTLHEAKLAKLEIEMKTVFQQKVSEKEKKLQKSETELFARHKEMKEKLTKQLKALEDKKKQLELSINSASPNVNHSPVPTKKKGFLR

[3] = molecular target: T3, SEPT2GFP (human) (UniProt Q15019)
T3 sequence: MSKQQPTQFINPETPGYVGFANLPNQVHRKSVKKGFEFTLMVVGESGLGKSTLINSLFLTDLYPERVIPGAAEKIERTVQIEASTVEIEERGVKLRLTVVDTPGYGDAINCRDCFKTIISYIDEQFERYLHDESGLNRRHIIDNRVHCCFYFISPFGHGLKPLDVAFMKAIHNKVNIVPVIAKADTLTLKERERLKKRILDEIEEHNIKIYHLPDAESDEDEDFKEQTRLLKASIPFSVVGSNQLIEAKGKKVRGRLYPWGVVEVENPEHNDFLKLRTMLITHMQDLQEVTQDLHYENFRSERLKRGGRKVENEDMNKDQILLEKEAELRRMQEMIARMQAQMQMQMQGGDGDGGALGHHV

[4] = molecular target: T4, Cdc10-GFP (budding yeast) (UniProt P25342)
T4 sequence: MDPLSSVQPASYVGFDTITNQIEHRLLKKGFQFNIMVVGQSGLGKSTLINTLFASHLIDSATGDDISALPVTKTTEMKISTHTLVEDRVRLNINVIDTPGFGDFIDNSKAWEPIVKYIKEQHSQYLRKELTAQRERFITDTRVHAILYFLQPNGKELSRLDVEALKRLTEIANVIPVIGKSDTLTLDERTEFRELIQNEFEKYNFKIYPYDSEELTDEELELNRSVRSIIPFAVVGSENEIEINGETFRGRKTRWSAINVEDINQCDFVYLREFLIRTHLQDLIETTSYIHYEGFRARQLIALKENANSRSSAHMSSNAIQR

[5] = molecular target: T5, SEPT9 (human), Q9UHD8; settings: remark: other sources report otherwise
T5 chain: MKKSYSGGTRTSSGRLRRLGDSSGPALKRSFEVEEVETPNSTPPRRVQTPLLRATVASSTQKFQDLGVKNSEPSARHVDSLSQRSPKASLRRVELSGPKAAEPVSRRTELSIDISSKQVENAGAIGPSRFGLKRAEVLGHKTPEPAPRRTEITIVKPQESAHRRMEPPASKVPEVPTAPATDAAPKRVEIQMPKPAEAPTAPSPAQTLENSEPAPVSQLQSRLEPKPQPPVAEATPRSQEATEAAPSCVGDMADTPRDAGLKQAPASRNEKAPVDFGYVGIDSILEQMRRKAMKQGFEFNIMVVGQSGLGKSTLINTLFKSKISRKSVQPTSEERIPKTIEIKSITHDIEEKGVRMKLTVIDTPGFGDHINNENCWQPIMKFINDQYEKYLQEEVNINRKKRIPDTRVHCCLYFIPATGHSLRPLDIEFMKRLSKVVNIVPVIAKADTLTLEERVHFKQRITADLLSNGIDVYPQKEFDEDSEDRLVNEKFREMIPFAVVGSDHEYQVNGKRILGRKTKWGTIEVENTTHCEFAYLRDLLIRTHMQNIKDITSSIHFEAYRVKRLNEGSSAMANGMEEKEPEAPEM

[6] = molecular target: T6, SEPT7 (human) (UniProt Q16181)
T6 sequence: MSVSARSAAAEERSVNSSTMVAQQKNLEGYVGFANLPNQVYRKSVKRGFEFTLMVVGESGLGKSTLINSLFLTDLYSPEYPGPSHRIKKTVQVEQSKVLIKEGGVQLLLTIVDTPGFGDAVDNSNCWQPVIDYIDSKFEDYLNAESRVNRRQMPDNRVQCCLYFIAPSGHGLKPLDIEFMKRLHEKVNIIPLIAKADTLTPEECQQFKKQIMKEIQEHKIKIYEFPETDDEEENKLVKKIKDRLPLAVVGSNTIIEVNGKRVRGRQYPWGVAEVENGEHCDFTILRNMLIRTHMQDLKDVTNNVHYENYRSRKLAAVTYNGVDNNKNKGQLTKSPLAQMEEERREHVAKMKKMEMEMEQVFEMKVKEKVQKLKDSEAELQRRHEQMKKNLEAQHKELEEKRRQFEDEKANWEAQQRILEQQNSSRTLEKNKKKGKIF

binding [1]: binds
B1: SEPT7 (protein, UniProt Q16181 1-437)
chain: MSVSARSAAAEERSVNSSTMVAQQKNLEGYVGFANLPNQVYRKSVKRGFEFTLMVVGESGLGKSTLINSLFLTDLYSPEYPGPSHRIKKTVQVEQSKVLIKEGGVQLLLTIVDTPGFGDAVDNSNCWQPVIDYIDSKFEDYLNAESRVNRRQMPDNRVQCCLYFIAPSGHGLKPLDIEFMKRLHEKVNIIPLIAKADTLTPEECQQFKKQIMKEIQEHKIKIYEFPETDDEEENKLVKKIKDRLPLAVVGSNTIIEVNGKRVRGRQYPWGVAEVENGEHCDFTILRNMLIRTHMQDLKDVTNNVHYENYRSRKLAAVTYNGVDNNKNKGQLTKSPLAQMEEERREHVAKMKKMEMEMEQVFEMKVKEKVQKLKDSEAELQRRHEQMKKNLEAQHKELEEKRRQFEDEKANWEAQQRILEQQNSSRTLEKNKKKGKIF

binding [2]: binds
B2: Cdc12 (protein, UniProt P32468 1-407)
chain: MSAATATAAPVPPPVGISNLPNQRYKIVNEEGGTFTVMLCGESGLGKTTFINTLFQTVLKRADGQQHRQEPIRKTVEIDITRALLEEKHFELRVNVIDTPGFGDNVNNNKAWQPLVDFIDDQHDSYMRQEQQPYRTKKFDLRVHAVLYFIRPTGHGLKPIDIETMKRLSTRANLIPVIAKADTLTAQELQQFKSRIRQVIEAQEIRIFTPPLDADSKEDAKSGSNPDSAAVEHARQLIEAMPFAIVGSEKKFDNGQGTQVVARKYPWGLVEIENDSHCDFRKLRALLLRTYLLDLISTTQEMHYETYRRLRLEGHENTGEGNEDFTLPAIAPARKLSHNPRYKEEENALKKYFTDQVKAEEQRFRQWEQNIVNERIRLNGDLEEIQGKVKKLEEQVKSLQVKKSHLK

binding [3]: binds
B3: SEPT6 (protein, UniProt Q14141 1-434)
chain: MAATDIARQVGEGCRTVPLAGHVGFDSLPDQLVNKSVSQGFCFNILCVGETGLGKSTLMDTLFNTKFEGEPATHTQPGVQLQSNTYDLQESNVRLKLTIVSTVGFGDQINKEDSYKPIVEFIDAQFEAYLQEELKIRRVLHTYHDSRIHVCLYFIAPTGHSLKSLDLVTMKKLDSKVNIIPIIAKADAISKSELTKFKIKITSELVSNGVQIYQFPTDDESVAEINGTMNAHLPFAVIGSTEELKIGNKMMRARQYPWGTVQVENEAHCDFVKLREMLIRVNMEDLREQTHTRHYELYRRCKLEEMGFKDTDPDSKPFSLQETYEAKRNEFLGELQKKEEEMRQMFVQRVKEKEAELKEAEKELHEKFDRLKKLHQDEKKKLEDKKKSLDDEVNAFKQRKTAAELLQSQGSQAGGSQTLKRDKEKKNNPWLCTE

binding [4]: binds
B4: Cdc3 (protein, UniProt P32457 1-520)
chain: MSLKEEQVSIKQDPEQEERQHDQFNDVQIKQESQDHDGVDSQYTNGTQNDDSERFEAAESDVKVEPGLGMGITSSQSEKGQVLPDQPEIKFIRRQINGYVGFANLPKQWHRRSIKNGFSFNLLCVGPDGIGKTTLMKTLFNNDDIEANLVKDYEEELANDQEEEEGQGEGHENQSQEQRHKVKIKSYESVIEENGVKLNLNVIDTEGFGDFLNNDQKSWDPIIKEIDSRFDQYLDAENKINRHSINDKRIHACLYFIEPTGHYLKPLDLKFMQSVYEKCNLIPVIAKSDILTDEEILSFKKTIMNQLIQSNIELFKPPIYSNDDAENSHLSERLFSSLPYAVIGSNDIVENYSGNQVRGRSYPWGVIEVDNDNHSDFNLLKNLLIKQFMEELKERTSKILYENYRSSKLAKLGIKQDNSVFKEFDPISKQQEEKTLHEAKLAKLEIEMKTVFQQKVSEKEKKLQKSETELFARHKEMKEKLTKQLKALEDKKKQLELSINSASPNVNHSPVPTKKKGFLR

binding [5]: binds
B5: SEPT9, Q9UHD8 1-586 (protein)
chain: MKKSYSGGTRTSSGRLRRLGDSSGPALKRSFEVEEVETPNSTPPRRVQTPLLRATVASSTQKFQDLGVKNSEPSARHVDSLSQRSPKASLRRVELSGPKAAEPVSRRTELSIDISSKQVENAGAIGPSRFGLKRAEVLGHKTPEPAPRRTEITIVKPQESAHRRMEPPASKVPEVPTAPATDAAPKRVEIQMPKPAEAPTAPSPAQTLENSEPAPVSQLQSRLEPKPQPPVAEATPRSQEATEAAPSCVGDMADTPRDAGLKQAPASRNEKAPVDFGYVGIDSILEQMRRKAMKQGFEFNIMVVGQSGLGKSTLINTLFKSKISRKSVQPTSEERIPKTIEIKSITHDIEEKGVRMKLTVIDTPGFGDHINNENCWQPIMKFINDQYEKYLQEEVNINRKKRIPDTRVHCCLYFIPATGHSLRPLDIEFMKRLSKVVNIVPVIAKADTLTLEERVHFKQRITADLLSNGIDVYPQKEFDEDSEDRLVNEKFREMIPFAVVGSDHEYQVNGKRILGRKTKWGTIEVENTTHCEFAYLRDLLIRTHMQNIKDITSSIHFEAYRVKRLNEGSSAMANGMEEKEPEAPEM

binding [6]: binds
B6: SEPT9 (protein, UniProt Q9UHD8 1-586)
chain: MKKSYSGGTRTSSGRLRRLGDSSGPALKRSFEVEEVETPNSTPPRRVQTPLLRATVASSTQKFQDLGVKNSEPSARHVDSLSQRSPKASLRRVELSGPKAAEPVSRRTELSIDISSKQVENAGAIGPSRFGLKRAEVLGHKTPEPAPRRTEITIVKPQESAHRRMEPPASKVPEVPTAPATDAAPKRVEIQMPKPAEAPTAPSPAQTLENSEPAPVSQLQSRLEPKPQPPVAEATPRSQEATEAAPSCVGDMADTPRDAGLKQAPASRNEKAPVDFGYVGIDSILEQMRRKAMKQGFEFNIMVVGQSGLGKSTLINTLFKSKISRKSVQPTSEERIPKTIEIKSITHDIEEKGVRMKLTVIDTPGFGDHINNENCWQPIMKFINDQYEKYLQEEVNINRKKRIPDTRVHCCLYFIPATGHSLRPLDIEFMKRLSKVVNIVPVIAKADTLTLEERVHFKQRITADLLSNGIDVYPQKEFDEDSEDRLVNEKFREMIPFAVVGSDHEYQVNGKRILGRKTKWGTIEVENTTHCEFAYLRDLLIRTHMQNIKDITSSIHFEAYRVKRLNEGSSAMANGMEEKEPEAPEM
